One assay concerns the target T1, SmgGDS-558-HA (human) (UniProt P52306).
T1 sequence: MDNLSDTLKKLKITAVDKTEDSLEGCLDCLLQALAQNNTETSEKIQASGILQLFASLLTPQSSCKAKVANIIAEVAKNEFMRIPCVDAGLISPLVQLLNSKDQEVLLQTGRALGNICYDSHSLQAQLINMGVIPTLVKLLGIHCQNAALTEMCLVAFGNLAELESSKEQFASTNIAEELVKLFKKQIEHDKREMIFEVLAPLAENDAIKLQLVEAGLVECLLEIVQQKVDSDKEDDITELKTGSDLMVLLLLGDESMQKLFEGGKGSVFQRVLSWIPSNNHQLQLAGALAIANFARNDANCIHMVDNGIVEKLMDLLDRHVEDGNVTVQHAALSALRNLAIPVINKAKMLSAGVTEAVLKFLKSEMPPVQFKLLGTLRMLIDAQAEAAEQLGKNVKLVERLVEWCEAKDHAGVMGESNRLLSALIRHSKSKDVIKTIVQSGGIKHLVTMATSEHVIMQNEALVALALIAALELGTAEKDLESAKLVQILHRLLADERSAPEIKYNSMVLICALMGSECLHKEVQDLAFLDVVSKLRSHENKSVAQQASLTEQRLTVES
The assay can be described thus: co-IP; HEK293T cells co-transfected with SmgGDS-558-HA or SmgGDS-607-HA, myc-tagged RAC1 or RAC1B and increasing amounts of DIRAS1 cDNA and/or empty vector (equal total cDNA); after 24 h lysate immunoprecipitated with the HA antibody; immunoblotting with HA and myc antibodies. For orientation: A western blot detects proteins with antibodies after separation by electrophoresis.

In another assay the target is T2, SmgGDS-607-HA (human) (UniProt P52306).
T2 sequence: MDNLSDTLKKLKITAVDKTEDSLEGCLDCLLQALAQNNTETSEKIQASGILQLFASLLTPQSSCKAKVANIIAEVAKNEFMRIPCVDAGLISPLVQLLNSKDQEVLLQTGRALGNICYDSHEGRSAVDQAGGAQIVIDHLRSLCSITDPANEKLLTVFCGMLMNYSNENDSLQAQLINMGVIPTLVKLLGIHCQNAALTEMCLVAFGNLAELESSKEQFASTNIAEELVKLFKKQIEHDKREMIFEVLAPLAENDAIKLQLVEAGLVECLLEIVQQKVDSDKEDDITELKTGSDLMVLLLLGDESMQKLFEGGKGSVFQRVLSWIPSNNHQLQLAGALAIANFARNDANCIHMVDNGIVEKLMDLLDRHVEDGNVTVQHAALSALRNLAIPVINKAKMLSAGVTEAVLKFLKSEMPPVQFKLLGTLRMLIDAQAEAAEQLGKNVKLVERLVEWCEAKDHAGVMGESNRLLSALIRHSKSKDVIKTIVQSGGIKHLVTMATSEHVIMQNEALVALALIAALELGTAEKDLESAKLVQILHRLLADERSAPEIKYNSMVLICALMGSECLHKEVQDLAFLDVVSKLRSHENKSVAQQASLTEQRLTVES
The assay is described as above.

Results are given in words; binding and its absence hold for the method and conditions named. Binding seen in cells or lysates may run through a third protein. Some binding calls cover weakened binding; strength is not graded here. Where a sequence is shown, tags or fusion partners need not be part of it.

B1: DIRAS1 (protein, UniProt O95057 1-198)
chain: MPEQSNDYRVVVFGAGGVGKSSLVLRFVKGTFRDTYIPTIEDTYRQVISCDKSVCTLQITDTTGSHQFPAMQRLSISKGHAFILVFSVTSKQSLEELGPIYKLIVQIKGSVEDIPVMLVGNKCDETQREVDTREAQAVAQEWKCAFMETSAKMNYNVKELFQELLTLETRRNMSLNIDGKRSGKQKRTDRVKGKCTLM
B1: the binding entry with SmgGDS-558-HA (human) and in the assay with SmgGDS-607-HA (human) was “binds” each time.

These data come from publication PMC10206184.
